According to patent publication US9096599B2, “Spiroindoline compounds” (Intervet Inc., priority 2011, dated 2015):
Some entries share one result that the patent states for a list of compounds.

Test system: Ascaridia galli (L3) and Oesophagostumum dentatum (L3 and L4) larvae
Experiment: In vitro anthelmintic larval test, minimum effective concentration by microscopic examination
Assay type: cell-based
Details: activity against one or both of the nematodes (A. galli L3; O. dentatum L3, L4); 96-well plates, 20 larvae per well, vs DMSO-control
Experimental: C: Biological Examples Efficacy Against Ascaridia galli and Oesophagostomum dentatum
Anthelmintic effects of compounds of this invention (numbers refer to compound numbers in Table I) were tested in vitro using gut-welling larval stages of two parasitic nematode species: Ascaridia galli (intestinal roundworm of chicken), larval stage 3 (“L3”); and Oesophagostumum dentatum (nodular worm of swine), larval stages 3 and 4 (respectively “L3” and “L4”). When conducting these experiments, DMSO-solutions of various concentrations of compounds of this invention were prepared and incubated in 96-well microtiter plates. The parasites were then distributed at 20 larvae per well. The anthelmintic effects were classified by microscopic examination. The microscopic examination included assessing mortality, damage, motility, progression of development, and neutral red uptake by the larvae in comparison to a DMSO-control.

Compound: Cc1ccc(/C=C/CN2CCC3(CC2)CN(C(=O)c2ccnc(Cl)c2)c2ccc(Sc4ccc(Cl)cc4)cc23)cc1 [Compound 109]
- minimum effective concentration (MEC): ≤ 50 µM

Compound: Cc1ccc(CCN2CCC3(CC2)CN(C(=O)c2ccnc(Cl)c2)c2ccc(Sc4ccc(F)cc4)cc23)c(C)c1 [Compound 117]
- minimum effective concentration (MEC): ≤ 50 µM

Compound: O=C(c1ccnc(Cl)c1)N1CC2(CCN(C/C=C/c3ccc(F)cc3F)CC2)c2cc(Sc3nccs3)ccc21 [Compound 73]
- minimum effective concentration (MEC): ≤ 50 µM

Compound: Cc1ccc(Sc2ccc3c(c2)C2(CCN(C/C=C/c4ccc(Cl)cc4Cl)CC2)CN3C(=O)c2ccnc(Cl)c2)cc1 [Compound 84]
- minimum effective concentration (MEC): ≤ 100 µM

Compound: O=C(c1ccnc(Cl)c1)N1CC2(CCN(C/C=C/c3ccc(F)c(F)c3)CC2)c2cc(Sc3nccs3)ccc21 [Compound 99]
- minimum effective concentration (MEC): ≤ 50 µM

Compound: O=C(c1ccnc(Cl)c1)N1CC2(CCN(CC=Cc3ccc(Cl)nc3)CC2)c2cc(Sc3ccc(F)cc3)ccc21 [Compound 141]
- minimum effective concentration (MEC): ≤ 50 µM

Compound: Cc1ccc(Sc2ccc3c(c2)C2(CCN(C/C=C/c4ccc(F)cc4F)CC2)CN3C(=O)c2ccnc(Cl)c2)cc1 [Compound 70]
- minimum effective concentration (MEC): ≤ 50 µM

Compound: O=C(c1ccnc(Cl)c1)N1CC2(CCN(C/C=C/c3ccc(F)cc3)CC2)c2cc(Sc3ccc(Cl)cc3)ccc21 [Compound 104]
- minimum effective concentration (MEC): ≤ 50 µM

Compound: Cc1ccc(Sc2ccc3c(c2)C2(CCN(C/C=C/c4ccc(F)c(F)c4)CC2)CN3C(=O)c2ccnc(Cl)c2)cc1 [Compound 96]
- minimum effective concentration (MEC): ≤ 100 µM

Compound: N#Cc1ccc(Sc2ccc3c(c2)C2(CCN(CC=Cc4ccc(Cl)cc4)CC2)CN3C(=O)c2ccnc(Cl)c2)cc1 [Compound 57]
- minimum effective concentration (MEC): ≤ 100 µM

Compound: Cc1ccc(Sc2ccc3c(c2)C2(CCN(CC=Cc4ccc(Cl)c(Cl)c4)CC2)CN3C(=O)c2ccnc(Cl)c2)cc1 [Compound 63]
- minimum effective concentration (MEC): ≤ 50 µM

Compound: Cc1ccc(/C=C/CN2CCC3(CC2)CN(C(=O)c2ccnc(Cl)c2)c2ccc(Sc4ccccc4)cc23)cc1 [Compound 105]
- minimum effective concentration (MEC): ≤ 100 µM

Compound: O=C(c1ccnc(Cl)c1)N1CC2(CCN(CCCc3ccc(Cl)c(Cl)c3)CC2)c2cc(Sc3ccc(Cl)cc3)ccc21 [Compound 120]
- minimum effective concentration (MEC): ≤ 100 µM

Compound: Cc1ccc(/C=C/CN2CCC3(CC2)CN(C(=O)c2ccnc(Cl)c2)c2ccc(Sc4ccc(C#N)cc4)cc23)c(C)c1 [Compound 91]
- minimum effective concentration (MEC): ≤ 100 µM

Compound: O=C(c1ccnc(Cl)c1)N1CC2(CCN(CC=Cc3ccc(Cl)c(Cl)c3)CC2)c2cc(Sc3nccs3)ccc21 [Compound 66]
- minimum effective concentration (MEC): ≤ 50 µM

Compound: Cn1cnnc1Sc1ccc2c(c1)C1(CCN(C/C=C/c3ccc(F)cc3F)CC1)CN2C(=O)c1ccnc(Cl)c1 [Compound 74]
- minimum effective concentration (MEC): ≤ 50 µM

Compound: CC(CCc1ccc(Cl)c(Cl)c1)N1CCC2(CC1)CN(C(=O)c1ccnc(Cl)c1)c1ccc(Sc3ccc(F)cc3)cc12 (stereo not shown) [Compound 121]
- minimum effective concentration (MEC): ≤ 100 µM

Compound: O=C(c1ccnc(Cl)c1)N1CC2(CCN(C/C=C/c3ccc(F)cc3F)CC2)c2cc(Sc3ccccc3)ccc21 [Compound 68]
- minimum effective concentration (MEC): ≤ 50 µM

Compound: Cc1ccc(/C=C/CN2CCC3(CC2)CN(C(=O)c2ccnc(Cl)c2)c2ccc(Sc4ccccc4)cc23)c(C)c1 [Compound 88]
- minimum effective concentration (MEC): ≤ 100 µM

Compound: O=C(c1ccnc(Cl)c1)N1CC2(CCN(CC=Cc3cccs3)CC2)c2cc(Sc3ccccc3)ccc21 [Compound 137]
- minimum effective concentration (MEC): ≤ 100 µM

Compound: Cc1ccc(/C=C/CN2CCC3(CC2)CN(C(=O)c2ccnc(Cl)c2)c2ccc(Sc4ccc(Cl)cc4)cc23)c(C)c1 [Compound 92]
- minimum effective concentration (MEC): ≤ 100 µM

Compound: N#Cc1ccc(Sc2ccc3c(c2)C2(CCN(CC=Cc4ccc(Cl)c(Cl)c4)CC2)CN3C(=O)c2ccnc(Cl)c2)cc1 [Compound 64]
- minimum effective concentration (MEC): ≤ 50 µM

Compound: O=C(c1ccnc(Cl)c1)N1CC2(CCN(CC=Cc3ccc(Cl)cc3)CC2)c2cc(Sc3ccc(Cl)cc3)ccc21 [Compound 58]
- minimum effective concentration (MEC): ≤ 50 µM

Compound: COc1ccc(Sc2ccc3c(c2)C2(CCN(C/C=C/c4ccc(Cl)cc4Cl)CC2)CN3C(=O)c2ccnc(Cl)c2)cc1 [Compound 83]
- minimum effective concentration (MEC): ≤ 50 µM

Compound: COc1ccc(Sc2ccc3c(c2)C2(CCN(CC=Cc4ccccc4)CC2)CN3C(=O)c2ccnc(Cl)c2)cc1 [Compound 50]
- minimum effective concentration (MEC): ≤ 100 µM

Compound: O=C(c1ccnc(Cl)c1)N1CC2(CCN(CCCc3ccc(Cl)c(Cl)c3)CC2)c2cc(Sc3ccc(F)cc3)ccc21 [Compound 116]
- minimum effective concentration (MEC): ≤ 50 µM

Compound: O=C(c1ccnc(Cl)c1)N1CC2(CCN(CC=Cc3ccc(Cl)cc3)CC2)c2cc(Sc3ccccc3)ccc21 [Compound 54]
- minimum effective concentration (MEC): ≤ 50 µM

Compound: O=C(c1ccnc(Cl)c1)N1CC2(CCN(CC=Cc3ccccc3)CC2)c2cc(Sc3ccccc3)ccc21 [Compound 49]
- minimum effective concentration (MEC): ≤ 100 µM

Compound: Cn1cnnc1Sc1ccc2c(c1)C1(CCN(CC=Cc3ccc(Cl)cc3)CC1)CN2C(=O)c1ccnc(Cl)c1 [Compound 60]
- minimum effective concentration (MEC): ≤ 100 µM

Compound: O=C(c1ccnc(Cl)c1)N1CC2(CCN(C/C=C/c3ccc(F)cc3F)CC2)c2cc(Sc3ccc(Cl)cc3)ccc21 [Compound 72]
- minimum effective concentration (MEC): ≤ 50 µM

Compound: COc1ccc(Sc2ccc3c(c2)C2(CCN(C/C=C/c4ccc(F)cc4)CC2)CN3C(=O)c2ccnc(Cl)c2)cc1 [Compound 101]
- minimum effective concentration (MEC): ≤ 50 µM

Compound: Cc1ccc(/C=C/CN2CCC3(CC2)CN(C(=O)c2ccnc(Cl)c2)c2ccc(Sc4ccc(C#N)cc4)cc23)cc1C [Compound 78]
- minimum effective concentration (MEC): ≤ 50 µM

Compound: CC(C)C=CCN1CCC2(CC1)CN(C(=O)c1ccnc(Cl)c1)c1ccc(Sc3ccccc3)cc12 [Compound 134]
- minimum effective concentration (MEC): ≤ 100 µM

Compound: O=C(c1ccnc(Cl)c1)N1CC2(CCN(C/C=C/c3ccc(Cl)cc3Cl)CC2)c2cc(Sc3ccccc3)ccc21 [Compound 82]
- minimum effective concentration (MEC): ≤ 100 µM

Compound: COc1ccc(Sc2ccc3c(c2)C2(CCN(C/C=C/c4ccc(F)c(F)c4)CC2)CN3C(=O)c2ccnc(Cl)c2)cc1 [Compound 95]
- minimum effective concentration (MEC): ≤ 100 µM

Compound: Cn1cnnc1Sc1ccc2c(c1)C1(CCN(C/C=C/c3ccc(Cl)c(Cl)c3)CC1)CN2C(=O)c1ccnc(Cl)c1 [Compound 67]
- minimum effective concentration (MEC): ≤ 100 µM

Compound: O=C(c1ccnc(Cl)c1)N1CC2(CCN(CC=Cc3ccc(Cl)c(Cl)c3)CC2)c2cc(Sc3ccc(Cl)cc3)ccc21 [Compound 65]
- minimum effective concentration (MEC): ≤ 100 µM

Compound: Cc1ccc(/C=C/CN2CCC3(CC2)CN(C(=O)c2ccnc(Cl)c2)c2ccc(Sc4ccc(Cl)cc4)cc23)cc1C [Compound 79]
- minimum effective concentration (MEC): ≤ 50 µM

Compound: N#Cc1ccc(Sc2ccc3c(c2)C2(CCN(C/C=C/c4ccc(F)cc4)CC2)CN3C(=O)c2ccnc(Cl)c2)cc1 [Compound 103]
- minimum effective concentration (MEC): ≤ 50 µM

Compound: Cc1ccc(Sc2ccc3c(c2)C2(CCN(C/C=C/c4ccc(C)c(C)c4)CC2)CN3C(=O)c2ccnc(Cl)c2)cc1 [Compound 77]
- minimum effective concentration (MEC): ≤ 50 µM

Compound: O=C(c1ccnc(Cl)c1)N1CC2(CCN(C/C=C/c3ccc(F)c(F)c3)CC2)c2cc(Sc3ccccc3)ccc21 [Compound 94]
- minimum effective concentration (MEC): ≤ 50 µM

Compound: Cc1ccc(Sc2ccc3c(c2)C2(CCN(CC=Cc4ccc(Cl)cc4)CC2)CN3C(=O)c2ccnc(Cl)c2)cc1 [Compound 56]
- minimum effective concentration (MEC): ≤ 50 µM

Compound: O=C(c1ccnc(Cl)c1)N1CC2(CCN(C/C=C/c3ccc(Cl)cc3Cl)CC2)c2cc(Sc3nccs3)ccc21 [Compound 87]
- minimum effective concentration (MEC): ≤ 50 µM

Compound: CC(C)C=CCN1CCC2(CC1)CN(C(=O)c1ccnc(Cl)c1)c1ccc(Sc3ccc(F)cc3)cc12 [Compound 135]
- minimum effective concentration (MEC): ≤ 50 µM

Compound: N#Cc1ccc(Sc2ccc3c(c2)C2(CCN(C/C=C/c4ccc(F)c(F)c4)CC2)CN3C(=O)c2ccnc(Cl)c2)cc1 [Compound 97]
- minimum effective concentration (MEC): ≤ 50 µM

Compound: COc1ccc(Sc2ccc3c(c2)C2(CCN(C/C=C/c4ccc(C)c(C)c4)CC2)CN3C(=O)c2ccnc(Cl)c2)cc1 [Compound 76]
- minimum effective concentration (MEC): ≤ 50 µM

Compound: N#Cc1ccc(Sc2ccc3c(c2)C2(CCN(C/C=C/c4ccc(F)cc4F)CC2)CN3C(=O)c2ccnc(Cl)c2)cc1 [Compound 71]
- minimum effective concentration (MEC): ≤ 50 µM

Compound: N#Cc1ccc(Sc2ccc3c(c2)C2(CCN(CC=Cc4ccccc4)CC2)CN3C(=O)c2ccnc(Cl)c2)cc1 [Compound 52]
- minimum effective concentration (MEC): ≤ 50 µM

Compound: COc1ccc(Sc2ccc3c(c2)C2(CCN(C/C=C/c4ccc(F)cc4F)CC2)CN3C(=O)c2ccnc(Cl)c2)cc1 [Compound 69]
- minimum effective concentration (MEC): ≤ 50 µM

Compound: Cc1ccc(Sc2ccc3c(c2)C2(CCN(CC=Cc4ccccc4)CC2)CN3C(=O)c2ccnc(Cl)c2)cc1 [Compound 51]
- minimum effective concentration (MEC): ≤ 50 µM

Compound: O=C(c1ccnc(Cl)c1)N1CC2(CCN(CCCc3ccc(Cl)nc3)CC2)c2cc(Sc3ccccc3)ccc21 [Compound 139]
- minimum effective concentration (MEC): ≤ 50 µM

Compound: COc1ccc(Sc2ccc3c(c2)C2(CCN(CC=CC(C)C)CC2)CN3C(=O)c2ccnc(Cl)c2)cc1 [Compound 136]
- minimum effective concentration (MEC): ≤ 50 µM

Compound: Cc1ccc(Sc2ccc3c(c2)C2(CCN(C/C=C/c4ccc(F)cc4)CC2)CN3C(=O)c2ccnc(Cl)c2)cc1 [Compound 102]
- minimum effective concentration (MEC): ≤ 50 µM

Compound: COc1ccc(Sc2ccc3c(c2)C2(CCN(CC=Cc4ccc(Cl)cc4)CC2)CN3C(=O)c2ccnc(Cl)c2)cc1 [Compound 55]
- minimum effective concentration (MEC): ≤ 50 µM

Compound: O=C(c1ccnc(Cl)c1)N1CC2(CCN(CCOc3ccc(Cl)c(Cl)c3)CC2)c2cc(Sc3ccc(F)cc3)ccc21 [Compound 132]
- minimum effective concentration (MEC): ≤ 50 µM
